Results taken from article PMC12670160, “A drug-repurposing screen of FDA- and EMA-approved drugs identifies two NF-κB inhibitors active against eumycetoma” (Journal of Antimicrobial Chemotherapy, 2025).
Structures can show the parent of a compound that is named as a salt. In all, about 5,300 compounds went through this assay and about 130 (2.5%) showed an effect of 50% or more. This is one part of the list.

system: M. mycetomatis strain mm55; details: primary screen, metabolic activity vs growth control; 96 h, 2 µM; inhibitor

| SMILES | % viability [%] |
| --- | --- |
| Cn1ccc2cc3c(cc21)CCN3C(=O)Nc1cccnc1 [ONC0001371, sb206553] | 94.08 |
| Cc1c(-c2ccccc2F)[nH]c(N)c1C#N [ONC0003774, ns8] | 112.5 |
| CCC(=O)Nc1cccc(Oc2nc(Nc3ccc(N4CCN(C)CC4)cc3OC)ncc2Cl)c1 [ONC0004489, wz4003] | 69.3 |
| CCCCc1ccc(NS(=O)(=O)c2ccc(F)cc2)cc1 [ONC0003590, dc260126] | 102.1 |
| C=CC(=O)Nc1cccc(Nc2nc(Nc3ccc(OCCOC)cc3)ncc2F)c1 [ONC0005149, cc292 avl292] | 103.2 |
| CCCOc1ccc(S(=O)(=O)N2CCN(CCO)CC2)cc1-c1nc2c(CCC)cn(CC)c2c(=O)[nH]1 [ONC0001035, mirodenafil dihydrochloride] | 96.75 |
| c1ccc(-c2ccc(CNc3nc(-c4ccccn4)nnc3-c3ccccc3)cc2)cc1 [ONC0001674, ml228] | 2.835 |
| Clc1cccc2c1CN(C1=NCCN1)C2 [ONC0000137, rs45041190] | 104.6 |
| CO/N=C(\C(=O)N[C@@H]1C(=O)N2C(C(=O)OC(C)OC(C)=O)=C(COC(N)=O)CS[C@H]12)c1ccco1 (some centres unmarked) [ONC0005599, cefuroximeaxetil] | 92.96 |
| O=C(O)Cc1cccc2c(=O)cc(-c3ccccc3)oc12 [ONC0003869, 4oxo2phenyl4hchromen8ylacetic acid] | 56.65 |
| O=[N+]([O-])c1c(Nc2cc(F)cc(Cl)c2)ccc2nonc12 [ONC0003032, tcs7009] | 67.33 |
| CCCSc1ccc2nc(NC(=O)OC)[nH]c2c1 [ONC0002437, albendazole] | 105.9 |
| CCC(=O)O[C@]1(C(=O)CO)CC[C@H]2[C@@H]3CCC4=CC(=O)CC[C@]4(C)[C@H]3CC[C@@]21C [ONC0000901, clascoterone] | 68.84 |
| NC(=NCc1ccc(Cl)cc1)SCCCc1cnc[nH]1 [ONC0002491, clobenpropit] | 94.75 |
| CN1CCN(c2nc3ccccc3nc2Cl)CC1 [ONC0004494, vuf 10166] | 100.6 |
| O=C(/C=C/c1c(C(=O)O)[nH]c2cc(Cl)cc(Cl)c12)Nc1ccccc1 [ONC0003531, gavestinel] | 108.3 |
| CC(C)c1c(NC(=O)Nc2ccc(Cl)cc2)c(=O)n(-c2ccccc2)n1C [ONC0001909, tcfpr43] | 60.36 |
| C[C@@H]1COC(Nc2ccc3ncnc(Nc4ccc(OCc5nccs5)c(Cl)c4)c3c2)=N1 [ONC0005018, varlitinib] | 90.25 |
| O=C(O)/C=C/CO [ONC0000264, trans4hydroxycrotonicacid] | 66.04 |
| O=C(/C=C/c1ccc(O)c(O)c1)O[C@@H]1C[C@](O)(C(=O)O)C[C@@H](O)[C@H]1O [ONC0004960, chlorogenic acid] | 87.22 |

Single values from above:
Value of Clc1cccc2c1CN(C1=NCCN1)C2 [ONC0000137, rs45041190] under % viability [%]: 104.6
Value of CCCCc1ccc(NS(=O)(=O)c2ccc(F)cc2)cc1 [ONC0003590, dc260126] under % viability [%]: 102.1

Later entries.

| SMILES | % viability [%] |
| --- | --- |
| C[N+]1(C)C2CC[C@H]1C[C@@H](OC(=O)C(O)c1ccccc1)C2 (some centres unmarked) [ONC0000437, homatropine methylbromide] | 73.59 |
| CCCCC(=O)NCCc1c(Cc2ccccc2)[nH]c2ccccc12 [ONC0000239, dh97] | 81.02 |
| CCC[C@@]1(CCc2ccccc2)CC(O)=C([C@H](CC)c2cccc(NS(=O)(=O)c3ccc(C(F)(F)F)cn3)c2)C(=O)O1 [ONC0000841, tipranavir] | 94.16 |
| Cc1cc2c(C(C)C)c(O)c(O)c(C=O)c2c(O)c1-c1c(C)cc2c(C(C)C)c(O)c(O)c(C=O)c2c1O [ONC0002567, gossypol] | 85.72 |
| C=CCOC(Cn1ccnc1)c1ccc(Cl)cc1Cl (centres unmarked) [ONC0005416, enilconazole sulfate] | 2.508 |
| CC1(C)[C@@H](OC(=O)CCC(=O)O)CC[C@]2(C)[C@H]3C(=O)C=C4[C@@H]5C[C@@](C)(C(=O)O)CC[C@]5(C)CC[C@@]4(C)[C@]3(C)CC[C@@H]12 [ONC0000604, carbenoxolone sodium] | 49.18 |
| O=C(O[C@H]1CN2CCC1CC2)N(Cc1cc(F)c(F)c(F)c1)c1cccc(F)c1 [ONC0001087, tarafenacin dtartrate] | 72.82 |
| O=C(/C=C/c1ccccc1)NCCO [ONC0003639, n2hydroxyethyl3phenylacrylamide] | 106 |
| N#C/C(=C\c1ccc(O)c(O)c1)C(=O)NCc1ccccc1 [ONC0001637, ag490] | 81.36 |
| C#C[C@]1(O)CC[C@H]2[C@@H]3CCC4=CC(=O)CC[C@@H]4[C@H]3CC[C@@]21CC [ONC0004187, levonorgestrel] | 62.14 |
| Cc1cc(SCc2sc(-c3ccc(C(F)(F)F)cc3)nc2C)ccc1OCC(=O)O [ONC0001821, gw 501516] | 81.58 |
| Cc1cc(C(=O)Nc2cccc(C(=O)Nc3cccc(C(F)(F)F)c3)c2)on1 [ONC0003093, t5601640] | 84.6 |
| COc1cc2c(cc1F)C(c1ccccc1Cl)=Nc1c(n[nH]c1C)N2 [ONC0000932, r1530] | 66.47 |
| CC(=O)OCC(=O)[C@H]1CC[C@H]2[C@@H]3CCC4=CC(=O)CC[C@]4(C)[C@H]3CC[C@]12C [ONC0003291, desoxycorticosterone acetate] | 95.35 |
| Cn1cc(-c2ccc3c(c2)CCN3C(=O)Cc2cccc(C(F)(F)F)c2)c2c(N)ncnc21 [ONC0001550, gsk2606414] | 70.45 |
| Oc1cccc(-c2nc(N3CCOCC3)c3oc4ncccc4c3n2)c1 [ONC0001440, pi103] | 59.86 |
| O=c1[nH]c2ccccc2n1C1CCN(CCCC(c2ccc(F)cc2)c2ccc(F)cc2)CC1 [ONC0000675, pimozide] | 106.9 |
| Fc1ccc(-c2c3cccc(C(F)(F)F)c3nn2Cc2ccc(F)cc2Cl)cc1 [ONC0001311, lxr623] | 57.61 |
| COC(=O)Nc1ccc2[nH]cc(CCNC(C)=O)c2c1 [ONC0000091, gr135531] | 120.1 |
| CC(C)(C)[C@H]1CC[C@H](CC2=C(O)C(=O)c3ccccc3C2=O)CC1 [ONC0001005, buparvaquone] | 96.95 |

| SMILES | % viability [%] |
| --- | --- |
| Nc1nc2c(ncn2CCC(CO)CO)c(=O)[nH]1 [ONC0004184, penciclovir] | 55.12 |
| CCCOc1ccc(C(=O)OCCN(CC)CC)cc1N [ONC0004850, proparacaine hcl] | 112.8 |
| CCOC(=O)[C@H](Cc1ccccc1)NC(=O)c1cc(Cl)c(OCCN2CCN(C)CC2)c(Cl)c1O [ONC0000249, jte607] | 72.89 |
| Cc1cc(C)c(S(=O)(=O)Nc2cccc(C(F)(F)F)c2)c(C)c1 [ONC0001400, m3m3fbs] | 100.9 |
| CCN(CC)CCOCCOC(=O)C(CC)(CC)c1ccccc1 [ONC0003992, oxelaidin citrate] | 89.02 |
| FC(F)(F)c1cccc(C2=CCN(CCc3ccc4ccccc4c3)CC2)c1 [ONC0001253, xaliproden] | 100.2 |
| O=C(CCCS)NC1CCN(C(=O)COc2ccc(Cl)cc2Cl)CC1 [ONC0005166, krasg12c inhibitor 6] | 98.75 |
| CC(=O)OCC(=O)[C@@]1(OC(C)=O)[C@@H](C)C[C@H]2[C@@H]3C[C@H](F)C4=CC(=O)C=C[C@]4(C)[C@@]3(F)[C@@H](O)C[C@@]21C [ONC0003433, diflorasone diacetate] | 66.72 |
| O=c1ccc2[nH]cc(C3=CCNCC3)c2[nH]1 [ONC0001485, cp93129] | 69.11 |
| CCC(=O)O[C@@H]1CC(=O)O[C@H](C)C/C=C/C=C/[C@H](OC(C)=O)[C@H](C)C[C@H](CC=O)[C@H](O[C@@H]2O[C@H](C)[C@@H](O[C@H]3C[C@@](C)(OC(C)=O)[C@@H](OC(=O)CC)[C@H](C)O3)[C@H](N(C)C)[C@H]2O)[C@H]1OC [ONC0000277, midecamycin acetate] | 81.75 |
| CC1=C(/C=C/C(=C/C=C/C(C)=C/C(=O)O)c2ccc(C)cc2)C(C)(C)CCC1 [ONC0003076, sr11302] | 63.44 |
| O=C(NCCN1CCCCC1)c1ccc(I)cc1 [ONC0002639, n2piperidinylaminoethyl4iodobenzamide] | 95.31 |
| CC1(C)Oc2ccc(C#N)cc2[C@@H](N2CCCC2=O)[C@@H]1O.CC1(C)Oc2ccc(C#N)cc2[C@H](N2CCCC2=O)[C@H]1O [ONC0001708, levcromakalim] | 57.98 |
| CC(C)C[C@H](NC(=O)CNC(=O)c1cc(Cl)ccc1Cl)B1OC(=O)C(CC(=O)O)(CC(=O)O)O1 [ONC0000714, ixazomib citrate] | 66.66 |
| CC[C@@H](CO)NCCN[C@@H](CC)CO [ONC0000706, ethambutol hydrochloride] | 87.95 |
| C=CCN1CC[C@]23CCCC[C@H]2[C@H]1Cc1ccc(O)cc13 [ONC0002007, levallorphan tartrate] | 94.62 |
| C[C@]1(Cn2ccnn2)[C@H](C(=O)O)N2C(=O)C[C@H]2S1(=O)=O [ONC0004112, tazobactam] | 92.99 |
| CC(CN(C)C)C(C)(O)Cc1ccc(Cl)cc1 (centres unmarked) [ONC0002346, clobutinol] | 81.15 |
| CCN(CC)CCCCNc1ncc2cc(-c3cc(OC)cc(OC)c3)c(NC(=O)NC(C)(C)C)nc2n1 [ONC0004651, pd173074] | 82.26 |
